According to PubChem BioAssay AID2061320 (National Center for Advancing Translational Sciences (NCATS), 2025):
The shares of active, inactive and inconclusive entries below differ from those in the screen. Potencies of inconclusive entries are doubtful fits and often do not repeat. Activity calls are given as the source filed them. Calls follow the shape of the dose curve; as a rule, active = well fitted inhibition curve with a large enough effect; inconclusive = small, poorly fitted or top-dose-only effect; inactive = flat fitted curve, though single readings scatter. Non-standard residues stand in square brackets, D forms with d. Residues, ends and D or L forms follow the SMILES beside them. Dolaproine = CO[C@@H]([C@@H]1CCCN1)[C@@H](C)C(=O)O; Dil = CC[C@H](C)[C@H](NC)[C@@H](CC(=O)O)OC; NMeV = CN[C@H](C(=O)O)C(C)C

Assay: Identification of antibody-drug conjugate (ADC) payloads which are substrates of ATP-binding cassette drug efflux transporters: ABCG2-H460-MX20 cell line
Details: H460-MX20 (ABCG2) viability, CellTiter-Glo, 48 h; series mostly up to 28.7 µM
Source text: Antibody-drug conjugates (ADCs) feature an antibody recognizing a specific protein joined to a potent toxic payload. Numerous antibody-drug conjugates have received FDA approval; however, clinical resistance arises. Resistance mechanisms include decreased expression or mutation of the antibody target, impaired payload release, or increased expression of ATP-binding cassette (ABC) efflux transporters associated with multidrug resistance. We therefore sought to characterize the interaction of ABC multidrug transporters with ADC payloads. We performed a high-throughput screen with 27 common ADC payloads using cells lines expressing ABC transporters P-glycoprotein (P-gp, encoded by ABCB1) or ABCG2 (encoded by ABCG2). Confirmatory assays were also performed using cells transfected to express P-gp, ABCG2, or MRP1 (encoded by ABCC1). Several commonly used ADC payloads were substrates of P-gp, including calicheamicin gamma1, monomethyl auristatin E, DM1, and DM4. All the pyrrolobenzodiazepines tested - SJG136, SGD-1882, SG2057, and SG3199 - were substrates of P-gp, ABCG2, and MRP1. […] These findings highlight the risk of transporter-mediated resistance with certain ADC payloads and underscore the importance of selecting payloads that evade ABC transporter recognition in future ADC development.
HEK-293 cells were transfected with empty vector (pcDNA) or vector containing the human ABCB1 (MDR-19), ABCG2 (R-5), or ABCC1 gene (MRP1) and were maintained in EMEM with 2 mg/mL G418 added to maintain transporter expression. The HeLa derivative KB-3-1 and the P-gp overexpressing KB-8-5-11 subline were maintained in DMEM; KB-8-5-11 additionally received 100 ng/mL colchicine. H460 parental cells were obtained from the Division of Cancer Treatment and Diagnosis Tumor Repository, National Cancer Institute at Frederick, MD and were cultured in RPMI. The ABCG2 expressing subline H460 MX20 was generated by selecting H460 cells in 20 nM mitoxantrone. Media in all cases was supplemented with 10% FBS and 1% penicillin-streptomycin. We explored 27 common ADC payloads, in two orthogonal, paired cell line sets-a drug selected and transfected set for each transporter--to identify substrates of the ABC transporters P-gp and ABCG2. Compounds were sourced from Levena Biopharma (San Diego, CA), Selleck Chem (Houston, TX), ChemieTek (Indianapolis, IN), or Microsource Discovery Systems (Gaylordsville, CT). Screening was performed as previously described. Briefly, cells were plated at a density of 500 cells/well in 1536 well plates with compounds added using a 1536-head pin tool (Kalypsys, San Diego CA). Cells were incubated with cytotoxic drugs and processed with CellTiter Glo reagent (Promega, Madison, WI) to determine viability after 48 hours. P-gp substrates were identified by comparing compound activity between paired sets of low-expressing (sensitive) and over-expressing (resistant) cell lines.
For `COc1cccc2c1C(=O)c1c(O)c3c(c(O)c1C2=O)C[C@@](O)(C(=O)CO)C[C@@H]3O[C@H]1C[C@H](N)[C@H](O)[C@H](C)O1`, the Potency was active: 1.19 µM.
In the case of `COc1cc2cc(c1Cl)N(C)C(=O)C[C@H](O)[C@]1(C)O[C@H]1[C@H](C)C1C[C@@](O)(NC(=O)O1)[C@H](OC)/C=C/C=C(\C)C2`, the Potency is reported as inconclusive: 10.6 µM [inhibitor, partial curve].
With `CC[C@H](C)[C@@H]([C@H](N)CC(=O)N1CCC[C@H]1[C@H](OC)[C@@H](C)C(=O)N[C@@H](Cc1ccccc1)c1nccs1)N(C)C(=O)[C@@H](NC(=O)[C@@H](NC)C(C)C)C(C)C` the Potency was “inactive”.
In the case of `CCc1c2c(nc3ccc(O)cc13)-c1cc3c(c(=O)n1C2)COC(=O)[C@]3(O)CC`, the Potency is reported as inconclusive: 2.12 µM [inhibitor, partial curve].
For `CC(C)(C)OC(=O)Nc1ccc2[nH]c(C(=O)N3C[C@@H](CCl)c4c3cc(O)c3ccccc43)cc2c1`, the Potency was active: 0.0106 µM.
With `COc1ccc(C2=CN3C(=O)c4cc(OC)c(OCCCOc5cc6c(cc5OC)C(=O)N5C=C(c7ccc(N)cc7)C[C@@H]5C=N6)cc4N=C[C@H]3C2)cc1` the Potency was inconclusive: 0.134 µM [inhibitor, full curve].
With `CC[C@]1(O)CC2CN(CCc3c([nH]c4ccccc34)[C@@](C(=O)OC)(c3cc4c(cc3OC)N(C)[C@H]3[C@@](O)(C(=O)OC)[C@H](OC(C)=O)[C@]5(CC)C=CCN6CC[C@]43[C@@H]65)C2)C1` (stereo partly drawn) the Potency was inconclusive: 0.168 µM [inhibitor, full curve].
In the case of `CCN(C(C)=O)[C@H]1CO[C@@H](O[C@H]2[C@H](O[C@H]3C#C/C=C\C#C[C@]4(O)CC(=O)C(NC(=O)OC)=C3/C4=C\CSSSC)O[C@H](C)[C@@H](NO[C@H]3C[C@H](O)[C@H](SC(=O)c4c(C)c(I)c(O[C@@H]5O[C@@H](C)[C@H](O)[C@@H](OC)[C@H]5O)c(OC)c4OC)[C@@H](C)O3)[C@@H]2O)C[C@@H]1OC`, the Potency is reported as active: 0.015 µM.
For `CC[C@H](C)[C@@H]([C@@H](CC(=O)N1CCC[C@H]1[C@H](OC)[C@@H](C)C(=O)N[C@@H](Cc1ccccc1)C(=O)O)OC)N(C)C(=O)[C@@H](NC(=O)[C@@H](NC)C(C)C)C(C)C` (H-[NMeV]V[Dil][Dolaproine]F-OH), the Potency was inconclusive: 1.06 µM [inhibitor, partial curve].
In the case of `CCN[C@H]1CO[C@@H](O[C@H]2[C@H](O[C@H]3C#C/C=C\C#C[C@]4(O)CC(=O)C(NC(=O)OC)=C3/C4=C\CSSSC)O[C@H](C)[C@@H](NO[C@H]3C[C@H](O)[C@H](SC(=O)c4c(C)c(I)c(O[C@@H]5O[C@@H](C)[C@H](O)[C@@H](OC)[C@H]5O)c(OC)c4OC)[C@@H](C)O3)[C@@H]2O)C[C@@H]1OC`, the Potency is reported as active: 0.0042 µM.
In the case of `CC[C@H](C)[C@@H]([C@H](N)CC(=O)N1CCC[C@H]1[C@H](OC)[C@@H](C)C(=O)N[C@@H](Cc1ccccc1)c1nccs1)N(C)C(=O)[C@@H](NC(=O)[C@H](C(C)C)N(C)C)C(C)C`, the Potency is reported as inconclusive: 0.0013 µM [inhibitor, full curve].
With `Cc1nc(Nc2ncc(C(=O)Nc3c(C)cccc3Cl)s2)cc(N2CCN(CCO)CC2)n1` the Potency was inconclusive: 11.9 µM [inhibitor, partial curve].
With `COc1cccc2c1C(=O)c1c(O)c3c(c(O)c1C2=O)C[C@@](O)(C(=O)CO)C[C@@H]3O[C@H]1C[C@H]2[C@H](O[C@@H]3[C@@H](OC)OCCN32)[C@H](C)O1` the Potency was active: 0.0002 µM.
